Assay [1] has as its target Recombinant human PDGF-C from R&D Systems (1687-CC/CF; Val235-Gly345) (human) (UniProt Q9NRA1). Briefly: competition ELISA: biotinylated PDGF-C pre-incubated with antibody, then added to coated PDGF-Rα/Fc; blocked partner PDGF-Rα/Fc; x axis fold molar excess Ab/PDGF-C.
Assay [2] has the same target. Briefly: SPR as in Example 3.

By UniProt entry, the sequences of proteins in these tests, tags left out. Where a name states a change or a piece, a line headed by the entry shows the natural chain unless it says otherwise.
UniProt Q9NRA1: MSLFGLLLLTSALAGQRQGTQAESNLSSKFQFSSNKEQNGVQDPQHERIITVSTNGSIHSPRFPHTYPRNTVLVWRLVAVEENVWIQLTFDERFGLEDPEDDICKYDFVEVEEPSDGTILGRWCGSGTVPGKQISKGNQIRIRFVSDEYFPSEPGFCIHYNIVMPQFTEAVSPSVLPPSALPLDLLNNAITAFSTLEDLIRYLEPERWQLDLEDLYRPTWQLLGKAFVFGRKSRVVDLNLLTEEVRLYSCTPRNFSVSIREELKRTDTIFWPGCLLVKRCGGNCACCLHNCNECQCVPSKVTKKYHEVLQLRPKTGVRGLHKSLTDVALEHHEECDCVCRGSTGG

No constants are given. Whether binding was seen depends on the method and setting. Binding calls can cover weak binding; strength is not graded here.

The values that follow come from US20150232546A1 (THROMBOGENICS, published 2015).

B1: anti-PDGF-C antibody 5A2 (antibody, IgG2b, V domains shown)
VH: EVQLVESGGDLVKPGGSLKLSCAASGFTFSNYGMSWVRQTPDKRLEWVATIGSGGHYTYYPDSVKGRFTISRDSAKSTLYLQMSSLKSEDTAIYYCARQAPLWDCSDYWGQGTTLTVSS
VL: DVLMTQTPLSLPVSLGDQASISCRSNQSIVHSNGDTYLEWYLQKPGQSPKLLIYKVSNRFSGVPDRFSGSGSGTDFTLKISRVEAEDLGVYYCFQGSHVPPTFGGGTKLEIK
notes: Mouse monoclonal from hybridoma, IgG2b, kappa; also called mAb 5A2; hybridoma LMBP 9484CB
Turning to B1, the binding result in assay [1] is on record as “binds”.

B2: anti-PDGF-C antibody 5H7 (antibody, IgG1, V domains shown)
VH: EVQLVESGGDLVKPGGSLKLSCAASGFTFSSYGMSWVRQTPDKRLEWVATIGYGGSFTYYPDSMKGRFTISRDNAKNTLFLQMSSLKSEDTAIYYCVRQAPLWDYFDYWGQGTTLTVSS
VL: DVLMTQTPLSLPVSLGDQASISCRSSQTIVHSDGTTYLEWYLQKAGQSPKLLIYKVSNRFSGVPDRFSGSGSGTDFTLKISRVEAEDLGVYYCFQGSHVPPTFGGGTKLEIK
notes: Mouse monoclonal from hybridoma, IgG1, kappa; also called mAb 5H7; hybridoma LMBP 9485CB
As to B2, the binding entry in assay [1] is given as “binds”.

B3: anti-PDGF-C antibody 16B1 (antibody, IgG1, V domains shown)
VH: EVQLVESGGDLVKPGGSLKLSCAASGFTFSNYGMSWVRQTPDKRLEWVATIGSGGSYTYYPDSVKGRFTISRDSAKNTLYLQMSSLKSEDTAMYYCARQAPLWDYSDYWGQGTTLTVSS
VL: DVLMTQTPLSLPVSLGDQASISCRSNQSIVHSNGDTYLEWYLQKPGQSPKLLIYKVSNRFSGVPDRFSGSGSGTDFTLKISRVEAEDLGVYYCFQGSHVPPTFGGGTKLEIK
notes: Mouse monoclonal from hybridoma, IgG1, kappa; VH same as 2D3, VL same as 5A2; also called mAb 16B1; hybridoma LMBP 9486CB
With B3, in assay [1], the binding result is “binds”.

B4: anti-PDGF-C antibody 2D3 (antibody, IgG1, V domains shown)
VH: EVQLVESGGDLVKPGGSLKLSCAASGFTFSNYGMSWVRQTPDKRLEWVATIGSGGSYTYYPDSVKGRFTISRDSAKNTLYLQMSSLKSEDTAMYYCARQAPLWDYSDYWGQGTTLTVSS
VL: DVLMTQTPLSLPVSLGDQASISCRSNQTIVHSNGDTYLEWYLQKPGQSPNLLIYKVSNRFSGVPDRFSGSGSGTDFTLKISRVEAEDLGVYYCFQGSHVPPTFGGGTKLEIK
notes: Mouse monoclonal from hybridoma, IgG1, kappa; also called mAb 2D3; hybridoma LMBP 9483CB
Turning to B4, the binding result in assay [1] was “binds”.

B5: anti-PDGF-C antibody 29H1 (antibody, IgG1, V domains shown)
VH: EVQLVESGGDLVKPGGSLKLSCAASGFTFSNYGMSWVRQTPDKRLEWVATIGSGGHYTYYPDSVKGRFTISRDSAKSTLYLQMSSLRSDDTAIYYCARQAPLWDCSDYWGQGTTLTVSS
VL: DVLMTQTPLSLPVSLGDQASISCRSNQSIVHSNGDTYLEWYLQKPGQSPNLLIYKVSNRFSGVPDRFSGSGSGTDFTLKISRVEAEDLGVYYCFQGSHVPPTFGGGTKLEIK
notes: Mouse monoclonal from hybridoma, IgG1, kappa; also called mAb 29H1; hybridoma LMBP 9487CB
For B5, the binding entry in assay [1] is “binds”.

B6: Humanized 5H7 anti-PDGF-C antibody (antibody, V domains shown)
VH: EVQLLESGGGLVQPGGSLRLSCAASGFTFSSYGMSWVRQTPGKGLEWVATIGYGGSFTYYPDSMKGRFTISRDNAKNTLYLQMNSLRAEDTAVYYCARQAPLWDYFDYWGQGTLLTVSS
VL: DVVMTQSPLSLPVTLGQPASISCRSSQTIVHSDGTTYLEWYLQKPGQSPRLLIYKVSNRFSGVPDRFSGSGSGTDFTLKISRVEAEDVGVYYCFQGSHVPPTFGQGTKLEIK
notes: also called humanized mAb 5H7
For the molecule B6, the binding result in assay [2] was “binds”.
